Consider one compound from US10342809B2, “Neuroactive 19-alkoxy-17-substituted steroids, prodrugs thereof, and methods of treatment using same” (priority 2012, dated 2019).

For data set [1], the system named is picrotoxin binding site on GABAA receptors. The experiment in a line: [35S]-TBPS displacement (inhibition of [35S]-TBPS binding). To be noted: Hill coefficient of the displacement curve; ± SEM. The text has this:
The IC50 values for non-competitive displacers of [^35S]-TBPS from the picrotoxin binding site on GABAA receptors are reported in Table 1.

A further data set deals with Tadpole. Nature of the data set: Tadpole loss of righting reflex (LRR) and loss of swimming reflex (LSR). The format is in vivo. The following applies: Hill coefficient. As for the experimental part:
Table 3 discloses the anesthetic effects of the compounds of the present disclosure. In particular, the anesthetic effect of the compounds of the present disclosure on Loss of Righting Reflex (LRR) and Loss of Swimming Reflex (LSR).
Methods used are known in the art (see Jiang, X., et al.). Error limits are calculated as standard error of the mean (N=10 or more animals at each of five or more different concentrations).

Each structure is given as a SMILES string.

As for `COC[C@]12CC[C@@H](O)C[C@@H]1CC[C@@H]1[C@@H]2CC[C@]2(C)C(=O)CC[C@@H]12` [Compound 11, (3α,5α)-3-Hydroxy-19-methoxyandrostan-17-one], the “nHill, [35S]-TBPS binding” value in data set [1] was 0.95 ± 0.15. Besides, in the data set with Tadpole (loss of righting reflex), the “Tadpole LRR nHill” value is on record as −1.81 ± 0.97. In addition, the “Tadpole LSR nHill” value in the data set on Tadpole (loss of swimming reflex) is −36.2 ± 0.2.
